The numbers were not newly measured in patent US5441985A, “Treatment of lower urinary tract disorders with selective norepinephrine uptake inhibitors” (priority 1993, dated 1995), which cites them from elsewhere.

The target of the data set is cholinergic receptors. The note with it: bladder homogenates; read-out: IC50 for displacement of tritiated-quinuclidinol benzoate (QNB) binding; cited from earlier work.

Regarding `CCN(CC)CC#CCOC(=O)C(O)(c1ccccc1)C1CCCCC1` (stereo not shown) [oxybutynin], the IC50 (in general, the midpoint of a concentration-inhibition curve) is 1400 nM.
